Results as given in the supplement of paper PMC8728848.
Some of the results follow.

What was measured:
Test in all cases: glycan array binding signal (z-score within array); higher = stronger binding
Settings in all cases: glycan notation: IUPAC condensed, linker removed
Gal3S(b1-4)Glc = biological target: Gal3S(b1-4)Glc
How it was run: (§1)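 The binding signal is a Z-score computed within each array and averaged over linkers. Arrays of the same protein sequence at different concentrations or buffers were also averaged together. Data originate from 3228 arrays in the Consortium for Functional Glycomics database, kept only where the protein sequence was available.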

Gal3S(b1-4)Glc6S = biological target: Gal3S(b1-4)Glc6S
How it was run: as §1

Gal3S(b1-4)GlcNAc = biological target: Gal3S(b1-4)GlcNAc
How it was run: as §1

[1] = biological target: Gal3S(b1-4)[Fuc(a1-3)]Glc6S
How it was run: as §1

[2] = biological target: Gal3S(b1-4)[Fuc(a1-3)]GlcNAc
How it was run: as §1

[3] = biological target: Gal3S(b1-4)[Fuc(a1-3)]GlcNAc6S
How it was run: as §1

Gal3S4S(b1-4)GlcNAc = biological target: Gal3S4S(b1-4)GlcNAc
How it was run: as §1

Gal3S6S(b1-4)GlcNAc = biological target: Gal3S6S(b1-4)GlcNAc
How it was run: as §1

Gal3S6S(b1-4)GlcNAc6S = biological target: Gal3S6S(b1-4)GlcNAc6S
How it was run: as §1

Gal4S(b1-4)GlcNAc = biological target: Gal4S(b1-4)GlcNAc
How it was run: as §1

Gal4S6S(b1-4)GlcNAc = biological target: Gal4S6S(b1-4)GlcNAc
How it was run: as §1

Gal6P(b1-4)GlcNAc = biological target: Gal6P(b1-4)GlcNAc
How it was run: as §1

Gal6S(b1-3)GlcNAc = biological target: Gal6S(b1-3)GlcNAc
How it was run: as §1

Gal6S(b1-3)GlcNAc6S = biological target: Gal6S(b1-3)GlcNAc6S
How it was run: as §1

Gal6S(b1-4)Glc = biological target: Gal6S(b1-4)Glc
How it was run: as §1

Gal6S(b1-4)Glc6S = biological target: Gal6S(b1-4)Glc6S
How it was run: as §1

Gal6S(b1-4)GlcNAc = biological target: Gal6S(b1-4)GlcNAc
How it was run: as §1

Gal6S(b1-4)GlcNAc6S = biological target: Gal6S(b1-4)GlcNAc6S
How it was run: as §1

GalNAc(a1-3)Gal = biological target: GalNAc(a1-3)Gal
How it was run: as §1

GalNAc(a1-3)GalNAc = biological target: GalNAc(a1-3)GalNAc
How it was run: as §1

[4] = biological target: GalNAc(a1-3)GalNAc(b1-3)Gal(a1-4)Gal(b1-4)Glc
How it was run: as §1

[5] = biological target: GalNAc(a1-3)GalNAc(b1-3)Gal(a1-4)Gal(b1-4)GlcNAc
How it was run: as §1

GalNAc(b1-3)Gal = biological target: GalNAc(b1-3)Gal
How it was run: as §1

[6] = biological target: GalNAc(b1-3)Gal(a1-4)Gal(b1-4)GlcNAc
How it was run: as §1

[7] = biological target: GalNAc(b1-3)Gal(a1-4)Gal(b1-4)GlcNAc(b1-3)Gal(b1-4)Glc
How it was run: as §1

[8] = biological target: GalNAc(b1-3)Gal(a1-6)Gal(b1-4)Glc
How it was run: as §1

GalNAc(b1-3)GalNAc = biological target: GalNAc(b1-3)GalNAc
How it was run: as §1

GalNAc(b1-3)GlcNAc = biological target: GalNAc(b1-3)GlcNAc
How it was run: as §1

GalNAc(b1-4)Gal(b1-4)Glc = biological target: GalNAc(b1-4)Gal(b1-4)Glc
How it was run: as §1

GalNAc(b1-4)GlcNAc = biological target: GalNAc(b1-4)GlcNAc
How it was run: as §1

[9] = biological target: GalNAc(b1-4)GlcNAc(b1-2)Man
How it was run: as §1

[10] = biological target: GalNAc(b1-4)GlcNAc(b1-2)Man(a1-3)[GalNAc(b1-4)GlcNAc(b1-2)Man(a1-6)]Man(b1-4)GlcNAc(b1-4)GlcNAc
How it was run: as §1

[11] = biological target: GalNAc(b1-4)GlcNAc(b1-3)GalNAc(b1-4)GlcNAc
How it was run: as §1

GalNAc(b1-4)GlcNAc6S = biological target: GalNAc(b1-4)GlcNAc6S
How it was run: as §1

GalNAc(b1-6)GalNAc = biological target: GalNAc(b1-6)GalNAc
How it was run: as §1

GalNAc3S(b1-4)GlcNAc = biological target: GalNAc3S(b1-4)GlcNAc
How it was run: as §1

GalNAc3S(b1-4)GlcNAc3S = biological target: GalNAc3S(b1-4)GlcNAc3S
How it was run: as §1

[12] = biological target: GalNAc3S(b1-4)[Fuc(a1-3)]GlcNAc
How it was run: as §1

GalNAc4S6S(b1-4)GlcNAc = biological target: GalNAc4S6S(b1-4)GlcNAc
How it was run: as §1

GalNAc6S(b1-4)GlcNAc = biological target: GalNAc6S(b1-4)GlcNAc
How it was run: as §1

Glc(a1-4)Glc = biological target: Glc(a1-4)Glc
How it was run: as §1

[13] = biological target: Glc(a1-4)Glc(a1-4)Glc(a1-4)Glc
How it was run: as §1

Glc(a1-6)Glc(a1-6)Glc = biological target: Glc(a1-6)Glc(a1-6)Glc
How it was run: as §1

[14] = biological target: Glc(a1-6)Glc(a1-6)Glc(a1-6)Glc
How it was run: as §1

Glc(b1-4)Glc = biological target: Glc(b1-4)Glc
How it was run: as §1

B1: Pwp7 (Candida glabrata) (protein)
chain: MGSSHHHHHHSSGLVPRGSHMASKNPVDFPNLCQYPNLDGAVAGFDTEIYNADPSILINFSLWPILQFPKEWHKTIGRAITTQTNFKLPASDTTLFGVSIPTQNILIEFRGYFIPPKSGTYTFALYLTDDGSAMFLGNDAAFPCGNITSWSNPTNDQVSVSDYDPKKKTLTVYMVAGVAYPLRIAYYNREKGGSLTASFVDPDGLTHSDWNGYIWTLPSCDNCKYS
glycan array binding signal (z-score) (Gal3S(b1-4)Glc): -0.515 | glycan array binding signal (z-score) (Gal3S(b1-4)Glc6S): -0.585 | glycan array binding signal (z-score) (Gal3S(b1-4)GlcNAc): -0.642 | glycan array binding signal (z-score) [1]: 0.032 | glycan array binding signal (z-score) [2]: -1.3 | glycan array binding signal (z-score) [3]: -0.723 | glycan array binding signal (z-score) (Gal3S4S(b1-4)GlcNAc): -0.816 | glycan array binding signal (z-score) (Gal3S6S(b1-4)GlcNAc): -0.247 | glycan array binding signal (z-score) (Gal3S6S(b1-4)GlcNAc6S): -0.801 | glycan array binding signal (z-score) (Gal4S(b1-4)GlcNAc): -1.16 | glycan array binding signal (z-score) (Gal4S6S(b1-4)GlcNAc): -0.806 | glycan array binding signal (z-score) (Gal6P(b1-4)GlcNAc): -0.135 | glycan array binding signal (z-score) (Gal6S(b1-3)GlcNAc): -1.4 | glycan array binding signal (z-score) (Gal6S(b1-3)GlcNAc6S): -0.368 | glycan array binding signal (z-score) (Gal6S(b1-4)Glc): -0.797 | glycan array binding signal (z-score) (Gal6S(b1-4)Glc6S): -0.46 | glycan array binding signal (z-score) (Gal6S(b1-4)GlcNAc): -0.869 | glycan array binding signal (z-score) (Gal6S(b1-4)GlcNAc6S): 0.227 | glycan array binding signal (z-score) (GalNAc(a1-3)Gal): -1.01 | glycan array binding signal (z-score) (GalNAc(a1-3)GalNAc): -1.15 | glycan array binding signal (z-score) [4]: 0.01 | glycan array binding signal (z-score) [5]: -0.508 | glycan array binding signal (z-score) (GalNAc(b1-3)Gal): -0.652 | glycan array binding signal (z-score) [6]: -0.47 | glycan array binding signal (z-score) [7]: 0.293 | glycan array binding signal (z-score) [8]: 0.42 | glycan array binding signal (z-score) (GalNAc(b1-3)GalNAc): -0.928 | glycan array binding signal (z-score) (GalNAc(b1-3)GlcNAc): -0.7 | glycan array binding signal (z-score) (GalNAc(b1-4)Gal(b1-4)Glc): 0.576 | glycan array binding signal (z-score) (GalNAc(b1-4)GlcNAc): -1.07 | glycan array binding signal (z-score) [9]: -0.89 | glycan array binding signal (z-score) [10]: 2.13 | glycan array binding signal (z-score) [11]: -0.44 | glycan array binding signal (z-score) (GalNAc(b1-4)GlcNAc6S): -0.943 | glycan array binding signal (z-score) (GalNAc(b1-6)GalNAc): -0.868 | glycan array binding signal (z-score) (GalNAc3S(b1-4)GlcNAc): -0.714 | glycan array binding signal (z-score) (GalNAc3S(b1-4)GlcNAc3S): 0.586 | glycan array binding signal (z-score) [12]: -0.908 | glycan array binding signal (z-score) (GalNAc4S6S(b1-4)GlcNAc): 1.42 | glycan array binding signal (z-score) (GalNAc6S(b1-4)GlcNAc): -0.54 | glycan array binding signal (z-score) (Glc(a1-4)Glc): -0.77 | glycan array binding signal (z-score) [13]: 0.248 | glycan array binding signal (z-score) (Glc(a1-6)Glc(a1-6)Glc): 0.293 | glycan array binding signal (z-score) [14]: 1.4 | glycan array binding signal (z-score) (Glc(b1-4)Glc): -0.475
